From PubChem BioAssay AID540276 (National Center for Advancing Translational Sciences (NCATS), 2011)
Several values for one entry are separate records, joined by “and”; a condition that tells them apart may be missing. Equal entries are not always repeated. Out of some 300,000 compounds screened, about 5,400 (1.8%) were called active. Inconclusive means that the source gave no clear call. Such entries were picked first, then a sample of the others. The call rests on the fitted dose curve; tested in HEK293 cells. A potency beside an inconclusive call is a rough fit, not a confirmed value. Some structures have more than one record in an assay (separate samples or runs), and their calls can disagree.

Experiment: qHTS for inhibitors of binding or entry into cells for Marburg Virus
Conditions: Marburg virus pseudotyped entry inhibition, cell reporter; activity change, negative = inhibition: at 37.8 µM (top of the series) unless noted
On the % scale 0 is the no-effect control and ±100 the full control effect; potency means the concentration at half of the fitted maximal effect.

Structure (SMILES) | Potency | activity change, negative = inhibition
NC(=O)c1ccc(NC(=O)Cc2cccs2)cc1 | inconclusive: 6.31 µM [inhibitor, single point] | 
c1ccc2sc(NC3=NCN(C4CCCCC4)CN3)nc2c1 |  | inactive: -3.3%
CC1CN(c2nc(Nc3ccccc3F)nc(N)c2[N+](=O)[O-])CC(C)O1 (stereo not drawn) | inconclusive: 2.51 µM [inhibitor, full curve, poor fit] | 
O=C(c1ccc(Cl)cc1)n1nc(-c2ccco2)nc1NCc1cccs1 | inconclusive: 2.51 µM [activator, partial curve, poor fit] | 
O=C(Nc1cnc2sc3c(n2c1=O)CCCC3)c1ccc(F)cc1 |  | inactive: 23.4%
COc1cccc(CC(=O)Nc2nc(-c3cc(OC)ccc3OC)cs2)c1 |  | inactive: -7.27% [at 46.1 µM]
CN(C)c1ccccc1C(=O)c1ccccc1N(C)C | inconclusive: 0.73 µM [inhibitor, full curve, poor fit] | 
COc1cccc(/C=C/C(=O)OC(C)C(=O)Nc2c(C)n(C)n(-c3ccccc3)c2=O)c1 (stereo not drawn) |  | inactive: 0.305% [at 46.1 µM]
CCN(c1ccccc1)S(=O)(=O)c1ccc(NCC2COc3ccccc3O2)nc1 (stereo not drawn) | inconclusive: 18.3 µM [inhibitor, partial curve, poor fit] | 
Cc1ccc(NC(=O)CCSc2nc(-c3ccc4c(c3)OCO4)cc(C(F)(F)F)n2)cc1 |  | inactive: -6.46% [at 46.1 µM]
COc1ccc(CNC(=O)Nc2cccc(C)c2)cc1 |  | inactive: -9.98%
CN1CCN(c2ccc(C(=O)c3ccccc3)cc2[N+](=O)[O-])CC1 | inconclusive: 3.16 µM [activator, single point] | 
COc1ccc(C(=O)Nc2ccc(S(=O)(=O)N3CCCCC3)cc2)cc1OC | inconclusive: 35.5 µM [inhibitor, single point] | 
COc1ccc(-n2nc(C(=O)NCC(=O)Nc3ccc(F)cc3)c3ccccc3c2=O)cc1 |  | inactive: 23.5% [at 46.1 µM]
CC(=O)Nc1ccc(S(=O)(=O)NNC(=O)CCC(=O)Nc2cc(C)ccc2C)cc1 | inconclusive: 0.891 µM [inhibitor, partial curve, poor fit] | 
COc1ccc(Oc2ncccc2[N+](=O)[O-])cc1 | inconclusive: 35.5 µM [activator, partial curve, poor fit] | 
COc1ccc(NC(=O)c2csc(Cc3ccccc3)n2)cc1 | inconclusive: 35.5 µM [inhibitor, single point] | 
O=C(CCCCn1c(=O)c2ccccc2n(CC(=O)Nc2cccc(F)c2)c1=O)NCc1ccccc1Cl | inconclusive: 22.4 µM [inhibitor, partial curve, poor fit] | 
CN(c1c(C#N)c(C(F)(F)F)nn1C)N(S(C)(=O)=O)S(C)(=O)=O |  | inactive: -2.48% [at 46.1 µM]
O=C(Nc1cc(Cl)ccc1N1CCOCC1)c1ccc2c(c1)OCCO2 | inconclusive: 35.5 µM [inhibitor, single point] | 
CCC(C)NC(=O)CCSCCC(=O)NC(C)CC (stereo not drawn) | inconclusive: 0.891 µM [activator, full curve, poor fit] | 
O=C(COC(=O)c1ccccc1Br)NC1CCCCCCC1 | inconclusive: 4.47 µM [activator, full curve, poor fit] | 
Cc1ccc(N2CN=c3s/c(=C\c4cccnc4)c(=O)n3C2)cc1 |  | inactive: -20.5% [at 46.1 µM]

Structure (SMILES) | Potency | activity change, negative = inhibition
Cn1cccc1/C=C1\SC(=S)N(NC(=O)c2ccccc2)C1=O | inconclusive: 0.231 µM [inhibitor, single point] | 
CN(Cc1ccccc1)C(=O)c1cc2c(s1)-c1ccc(Cl)cc1SC2 | inconclusive: 3.16 µM [activator, partial curve, poor fit] | 
Cc1cccc(NC(=S)NCCc2c[nH]c3ccccc23)c1 | inconclusive: 11.2 µM [inhibitor, single point] | 
CCN1CCN(C(=O)c2cc(COc3ccc(F)cc3F)on2)[C@@H](C)C1=O | inconclusive: 10 µM [inhibitor, partial curve, poor fit] | 
CC(Nc1ncnc2sccc12)c1ccccc1 (stereo not drawn) | inconclusive: 3.55 µM [inhibitor, partial curve, poor fit] | 
Cc1ccc(C2(C)NC(=O)N(CC(=O)N3CCN(S(=O)(=O)c4cccs4)CC3)C2=O)cc1 (stereo not drawn) | inconclusive: 35.5 µM [activator, single point] | 
COc1cc(/C=C/c2nc(C#N)c(NC(C)c3ccccc3)o2)cc(OC)c1OC (stereo not drawn) | inconclusive: 7.08 µM [inhibitor, partial curve] | 
CC(C)c1nc(SCC(=O)Nc2nccs2)c2ccccc2n1 |  | inactive: -11.3% [at 46.1 µM]
Cn1cnnc1SCC(=O)c1ccc2c(c1)OCO2 | inconclusive: 0.112 µM [activator, full curve, poor fit] | 
COc1cc(C(=O)N2CCCCCCC2)ccc1OC1CCN(C(C)=O)CC1 | inconclusive: 35.5 µM [activator, single point] | 
O=C(N/N=C/c1ccco1)c1cc(-c2ccc(Br)s2)[nH]n1 |  | inactive: 4.09% [at 46.1 µM]
Cc1cc(-c2cc(C(=O)O)c3ccccc3n2)c(C)s1 | inconclusive: 14.1 µM [inhibitor, single point] | 
CCc1nn(CC(=O)NCCCN(Cc2ccccc2)C(C)C)c(=O)c2cc3sccc3n12 | inconclusive: 13 µM [inhibitor, partial curve] | 
O=C(Cc1ccccc1F)Nc1ccc(SC(F)F)cc1 | inconclusive: 0.562 µM [activator, full curve, poor fit] | 
C=CCn1c(SCC(N)=O)nc2sc3c(c2c1=O)CCC3 |  | inactive: -5.4%
CN(C)c1cccc2c(S(=O)(=O)NCc3ccc(S(N)(=O)=O)cc3)cccc12 | inconclusive: 6.31 µM [inhibitor, single point] | 
O=C(NCCCn1ncc2ccccc21)c1cc(COc2c(F)cccc2F)on1 | inconclusive: 31.6 µM [inhibitor, partial curve, poor fit] | 
COc1ccc(C(c2nnnn2Cc2ccccc2)N2CCN(c3nc4ccccc4s3)CC2)cc1OC (stereo not drawn) | inconclusive: 12.6 µM [inhibitor, partial curve, poor fit] | 
COc1ccc(-c2c(C)nn3c(C(F)(F)F)cc(-c4ccc(Br)cc4)nc23)cc1 |  | inactive: 0.32% [at 46.1 µM]
CC(C(=O)NCc1cccs1)N1CCN(S(=O)(=O)c2ccc3c(c2)OCCCO3)CC1 (stereo not drawn) | inconclusive: 25.1 µM [inhibitor, single point] | 
O=c1oc2ccccc2n1CCn1c2ccccc2c2nc3ccccc3nc21 | inconclusive: 12.6 µM [inhibitor, partial curve, poor fit] | 
COc1ccc(-c2nc(-c3ccccc3)oc2NC2CCCCC2)cc1 | inconclusive: 1.06 µM [activator, partial curve, poor fit] | 

Of the compounds above, these contain a furan ring, fused or not:
Structure (SMILES) | Potency | activity change, negative = inhibition
O=C(c1ccc(Cl)cc1)n1nc(-c2ccco2)nc1NCc1cccs1 | inconclusive: 2.51 µM [activator, partial curve, poor fit] | 
O=C(N/N=C/c1ccco1)c1cc(-c2ccc(Br)s2)[nH]n1 |  | inactive: 4.09% [at 46.1 µM]

The listing continues:

Structure (SMILES) | Potency | activity change, negative = inhibition
O=C(Cc1cccs1)Nc1cccc(C(=O)Nc2ccc(C(=O)O)cc2)c1 |  | inactive: 22.8% [at 46.1 µM]
Cc1ccc(C)c(NC(=O)c2cc(-c3ccccc3O)n[nH]2)c1 | inconclusive: 14.1 µM [inhibitor, single point] | 
O=C(COc1c(CO)cc(Br)cc1CO)NC1CCCc2ccccc21 (stereo not drawn) | inconclusive: 7.08 µM [inhibitor, partial curve] | 
CC(C)Cn1c(SCC(=O)Nc2cc(Cl)c(Cl)cc2Cl)nc(O)cc1=O | inconclusive: 1 µM [activator, single point] | 
CCC/C=N/NC(=O)c1[nH]c2c([N+](=O)[O-])cccc2c1C | inconclusive: 3.16 µM [inhibitor, full curve] | 
C=CCN(CC=C)C(=O)c1cc(Cl)ccc1[N+](=O)[O-] | inconclusive: 1.26 µM [inhibitor, single point] | 
O=C(O)c1cccc(Cn2cc(Cl)cn2)c1 |  | inactive: 12.7%
NC(=S)N/N=C/c1ccccc1OCc1cccc(Cl)c1 | inconclusive: 10 µM [inhibitor, partial curve] | 
Cc1ccc(OCCSc2nc3ccc(NC(=O)COc4ccc(F)cc4)cc3s2)cc1 | inconclusive: 3.55 µM [inhibitor, partial curve, poor fit] | 
CCOc1ccc(NC(=O)OCCN2CCN(CCc3ccccc3)C(C)C2)cc1 (stereo not drawn) | inconclusive: 11.2 µM [inhibitor, partial curve] | 
O=C(O)c1ccc(/C=N\Nc2ccccn2)cc1 |  | inactive: -22.1%
O=[N+]([O-])c1ccc(O)c(CNCc2ccccc2)c1 | inconclusive: 4.47 µM [activator, full curve, poor fit] | 
Cc1ccc(S(=O)(=O)NCC(=O)OC(C(=O)c2ccccc2)c2ccccc2)cc1 (stereo not drawn) | inconclusive: 0.461 µM [activator, full curve, poor fit] | 
CCN(CC)CCOC(=O)c1cc(Cl)c(N)cc1OC | inactive and active: 12.6 µM | 
COC1=C(Br)C(=O)c2ncccc2C1=O | inconclusive: 31.6 µM [inhibitor, single point] | 
COc1ccc(-c2oc(NC(=O)CSc3ncn[nH]3)c(C#N)c2-c2ccc(OC)cc2)cc1 |  | inactive: -2.29%
Cn1ccnc1C(O)(c1ccccc1)c1ccccc1 |  | inactive: 24.6%
Cc1noc(C)c1COc1cccc(C(=O)NCc2ccccc2Cl)c1 | inconclusive: 35.5 µM [inhibitor, single point] | 
O=C1NC(=O)N(c2ccccc2)C(=O)/C1=C/c1ccc(Sc2ccccc2)o1 | inconclusive: 29.1 µM [inhibitor, single point] | 
COc1ccccc1NC(=O)c1ccc(NC(=O)C2CC2)cc1 |  | inactive: 0.943%
Cc1ccc(Nc2nnc(SC(C)C(=O)NC3CC3)s2)cc1 (stereo not drawn) |  | inactive: 11.7%
C=CCn1c(CSc2nc3ccccc3s2)nnc1SCC(=O)OCC | inconclusive: 20.6 µM [activator, single point] | 
